## Primary screen of a compound library

Mtb cholesterol medium: 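Growth of Mycobacterium tuberculosis over 4 days (cholesterol / DPPC medium with tyloxapol); the read-out is not stated. Tested at 500 µM. Direction is inferred from retests: higher values go with more growth inhibition. Size under these conditions: about 18,000 compounds, about 900 of them at 50% or above in at least one test.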
Mtb glucose medium: 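Phenotypic screen: M. tuberculosis growth, glucose 7H9 medium, 3 days; the read-out is not stated. Compounds at 500 µM. Higher reads as more growth inhibition (inferred: compounds with an IC50 in retests scored well above the rest). About 18,000 compounds were tested under these conditions; 7.9% (about 1,400) showed 50% or more at least once.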

Each number is a percent effect as filed.
The controls that fix the scale are not given in the record; negative values are as filed.
This is an unselected part of the compounds tested.

With CC(C)(C)OCCOc1ccc(OCCO)cc1 the screen gave Mtb cholesterol medium: 63.67%; Mtb glucose medium: 60.5%.
With CC1c2cccn2CCN1C(=O)c1cnccn1 (centres undefined) the screen gave Mtb cholesterol medium: -27.95%; Mtb glucose medium: -21.48%.
With NC(CO)c1ccc(F)cc1F (centres undefined) the screen gave Mtb cholesterol medium: 6.858%; Mtb glucose medium: 3.52%.
With CNC1CCN(CCn2cccn2)CC1 the screen gave Mtb cholesterol medium: -2.858%; Mtb glucose medium: 3.653%.
With O=C1CC2(CCN(C(=O)CCc3cccs3)C2)C(=O)N1 (centres undefined) the screen gave Mtb cholesterol medium: 7.711%; Mtb glucose medium: 25.4%.
With CC(C)S(=O)(=O)N(C)CC(=O)N(C)Cc1cccs1 the screen gave Mtb cholesterol medium: 8.289%; Mtb glucose medium: 37.11%.
With COCCNC(=O)c1ccc(CN2CCCCC2)cc1 the screen gave Mtb cholesterol medium: 10.98%; Mtb glucose medium: 9.969%.
With CCCN(CCCN(C)C)C(=O)CCCOC the screen gave Mtb cholesterol medium: 15.6%; Mtb glucose medium: 16.15%.
With CCn1c(SCC(N)=O)nnc1-c1cccnc1 the screen gave Mtb cholesterol medium: -4.544%; Mtb glucose medium: -11.12%.
With COCC(NC(=O)c1cccc(Cl)c1F)C(N)=O (centres undefined) the screen gave Mtb cholesterol medium: 2.708%; Mtb glucose medium: 6.356%.
With O=C(NCC1CCCNC1)c1coc2ccccc12 (centres undefined) the screen gave Mtb cholesterol medium: 6%; Mtb glucose medium: 5.914%.
With Cc1cc(NC(=O)C2=NN(C)C(=O)CC2)n(C)n1 the screen gave Mtb cholesterol medium: -7.519%; Mtb glucose medium: -0.3519%.
With CNC(=O)NC(=O)C(C)n1cnc(C#N)n1 (centres undefined) the screen gave Mtb cholesterol medium: -9.345%; Mtb glucose medium: -4.149%.
With CC(=O)NCCC(=O)N1c2ccccc2CC1C (centres undefined) the screen gave Mtb cholesterol medium: -8.359%; Mtb glucose medium: -6.434%.
With NC(=O)C1CCN(CCC(=O)Nc2ccccc2)CC1 the screen gave Mtb cholesterol medium: -7.913%; Mtb glucose medium: -6.312%.
With O=C(Nc1cc[nH]n1)c1csc(I)c1 the screen gave Mtb cholesterol medium: 79.03%; Mtb glucose medium: 79.53%.
With CCn1ncnc1CN1CCC(O)(c2ccccc2)C1 (centres undefined) the screen gave Mtb cholesterol medium: -6.765%; Mtb glucose medium: -5.707%.
With Cn1cc(Cl)cc1C(=O)Nc1nncs1 the screen gave Mtb cholesterol medium: 37.56%; Mtb glucose medium: 44.78%.
With COC(=O)CC1C(=O)NCCN1Cc1ccccc1 (centres undefined) the screen gave Mtb cholesterol medium: -3.139%; Mtb glucose medium: 8.7%.
With CN1CCN(CC(=O)NCC2CCCS2)CC1=O (centres undefined) the screen gave Mtb cholesterol medium: -1.118%; Mtb glucose medium: 7.743%.
With COC(=O)C(C)SCc1ccc(-n2ccnc2)nc1 (centres undefined) the screen gave Mtb cholesterol medium: 30.1%; Mtb glucose medium: 47.51%.
With CCN(Cc1nccn1C)C(=O)c1cccc(C#N)c1 the screen gave Mtb cholesterol medium: 1.905%; Mtb glucose medium: 16.04%.
With OC[C@@H](Cc1ccccc1)NC1CCCOC1 (some centres undefined) the screen gave Mtb cholesterol medium: 3.828%; Mtb glucose medium: 5.818%.
With O=C(CCO)NCC1CCN(c2ccccc2F)C1 (centres undefined) the screen gave Mtb cholesterol medium: 7.841%; Mtb glucose medium: 16.23%.
With CCN(CC)Cc1nnnn1-c1ccccc1 the screen gave Mtb cholesterol medium: 1.729%; Mtb glucose medium: 11.49%.
With CC(C)c1cc(CN)on1 the screen gave Mtb cholesterol medium: 26.46%; Mtb glucose medium: 31.67%.
With CCO[C@H]1CN(c2nnc(C(C)C)s2)C[C@@H]1O the screen gave Mtb cholesterol medium: 1.739%; Mtb glucose medium: 13.61%.
With NCc1cccc(C(N)=O)n1 the screen gave Mtb cholesterol medium: 22.05%; Mtb glucose medium: 7.574%.
With NCCNC(=O)c1ccc(C(F)(F)F)cc1 the screen gave Mtb cholesterol medium: 35.22%; Mtb glucose medium: 37.98%.
With O=C(CCn1cccn1)NCC(O)Cc1ccccc1 (centres undefined) the screen gave Mtb cholesterol medium: 8.557%; Mtb glucose medium: 20.12%.
With N#Cc1ccc(S(=O)(=O)N2CCCO2)c(Cl)c1 the screen gave Mtb cholesterol medium: 17.45%; Mtb glucose medium: 7.715%.
With CCN(CC)C(=O)CN(C)C(=O)CC(C)(C)C#N the screen gave Mtb cholesterol medium: -11.11%; Mtb glucose medium: -0.3042%.
With CCN(C1CCOCC1)C1CN(C(=O)c2ccoc2)C1 the screen gave Mtb cholesterol medium: -19.52%; Mtb glucose medium: -3.483%.
With COc1cc(C(=O)NCC(=O)c2ccco2)ccc1F the screen gave Mtb cholesterol medium: 43.49%; Mtb glucose medium: 35.21%.
With CN(C)C(=O)CCN1CCCC1c1ccsc1 (centres undefined) the screen gave Mtb cholesterol medium: 25.13%; Mtb glucose medium: 53.25%.

Some entries from above, unchanged:

Compound	Mtb cholesterol medium	Mtb glucose medium
CC1c2cccn2CCN1C(=O)c1cnccn1 (centres undefined)	-27.95%	-21.48%
O=C1CC2(CCN(C(=O)CCc3cccs3)C2)C(=O)N1 (centres undefined)	7.711%	25.4%

The values are deposited in ChEMBL (CHEMBL3988442, “University of Dundee, Small-Polar-MMV Screening Library” (2021)).